# Experiments:
# [1] = HILIC, Thermo Scientific Accucore HILIC, 100 × 2.1 mm, 2.6 µm, 0.5 mL/min, estimated dead time 0.44 min; A: water + 0.1% formic acid + 10 mM ammonium formate, pH 3; B: 5% water + 95% acetonitrile + 0.1% formic acid + 10 mM ammonium formate, pH 3; gradient (min/%B) 0/95 5/95 20/57 25/57 30/95 40/95; details: stereoisomer not certain
# [2] = HILIC, Waters XBridge BEH Amide, 100 × 2.1 mm, 2.5 µm, 0.5 mL/min, estimated dead time 0.44 min; A: water + 0.1% acetic acid + 10 mM ammonium acetate, pH 4; B: 5% water + 95% acetonitrile + 0.1% acetic acid + 10 mM ammonium acetate, pH 4; gradient (min/%B) 0/95 5/95 20/57 25/57 30/95 40/95; details: stereoisomer not certain
LC retention time [1],LC retention time [2],SMILES
11.5 min,11.4 min,O=C(O)C1=CC(=O)C(O)C(O)C1 (stereo not drawn) [3-DEHYDROSHIKIMATE]
–,12.6 min,O=C(O)C1=CC(O)C(O)C(O)C1 (stereo not drawn) [SHIKIMATE]

# — the RepoRT retention time repository (doi:10.1016/j.jchromb.2020.122105)
